Source: publication PMC8270897
Results are given in words; binding and its absence hold for the method and conditions named. Binding seen in cells or lysates may run through a third protein. Some binding calls cover weakened binding; strength is not graded here. Each block holds one molecule with its values, some of them ahead of it.

Amino acid sequences for entries named in this document (tags omitted). A change or cut given only in a name is not applied to a line headed by its entry.
UniProt P49137: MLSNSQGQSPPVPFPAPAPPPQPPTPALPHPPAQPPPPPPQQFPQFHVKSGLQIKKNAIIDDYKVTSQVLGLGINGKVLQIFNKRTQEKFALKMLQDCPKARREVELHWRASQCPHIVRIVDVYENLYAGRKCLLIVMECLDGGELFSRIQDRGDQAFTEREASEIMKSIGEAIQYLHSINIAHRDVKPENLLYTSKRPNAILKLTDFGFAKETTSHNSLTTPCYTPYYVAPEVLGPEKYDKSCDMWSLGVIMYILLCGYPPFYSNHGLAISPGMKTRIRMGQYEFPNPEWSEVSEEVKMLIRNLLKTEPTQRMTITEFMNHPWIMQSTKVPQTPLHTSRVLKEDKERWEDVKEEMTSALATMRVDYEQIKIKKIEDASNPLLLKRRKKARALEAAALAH
UniProt Q92905: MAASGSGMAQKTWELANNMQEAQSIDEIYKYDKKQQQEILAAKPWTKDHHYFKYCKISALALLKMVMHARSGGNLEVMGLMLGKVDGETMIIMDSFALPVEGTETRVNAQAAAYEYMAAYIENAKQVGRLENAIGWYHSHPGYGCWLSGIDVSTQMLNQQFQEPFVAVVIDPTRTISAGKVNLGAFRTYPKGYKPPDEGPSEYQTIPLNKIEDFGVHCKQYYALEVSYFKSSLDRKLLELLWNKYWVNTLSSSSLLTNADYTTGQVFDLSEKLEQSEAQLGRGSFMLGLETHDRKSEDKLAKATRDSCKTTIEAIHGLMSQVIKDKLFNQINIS

What was measured:
[1] = target: JUN in MDA-MB-231 cells (human (endogenous in MDA-MB-231)) (UniProt P05412); assay: co-IP; MDA-MB-231 cells treated with SB203580 or not; IP with anti-JUN or anti-JAB1 polyclonal antibody, western blot for the other
[2] = target: MAPKAPK2 (MK2), endogenous in MDA-MB-231 cells (human (endogenous in MDA-MB-231)) (UniProt P49137); assay: co-IP; endogenous proteins of MDA-MB-231 cells; IP with antibody against MK2 or against JAB1, western blot for the other; IP buffer 50 mM Tris HCl, 150 mM NaCl, 1% NP40
[3] = target: HA-tagged JAB1A (JAB1-S177A, MK2-nonphosphorylatable mutant) (human) (UniProt Q92905); assay: co-IP; MDA-MB-231 cells transduced with HA-tagged JAB1, JAB1D or JAB1A; IP with HA mAb, western blot with anti-JUN polyclonal antibody
[4] = target: HA-tagged JAB1D (JAB1-S177D, MK2-phosphomimetic mutant) (human) (UniProt Q92905); assay: as above
[5] = target: HA-tagged JAB1 (transduced into MDA-MB-231) (human) (UniProt Q92905); assay: as above
[6] = target: JUN activation domain-binding protein 1 (JAB1), endogenous in MDA-MB-231 cells (human (endogenous in MDA-MB-231)) (UniProt Q92905); assay: co-IP; MDA-MB-231 cells treated with SB203580 or not; IP with anti-JUN or anti-JAB1 polyclonal antibody, western blot for the other
[7] = target: JUN activation domain-binding protein 1 (JAB1), endogenous in MDA-MB-231 cells (human (endogenous in MDA-MB-231)) (UniProt Q92905); assay: co-IP; endogenous proteins of MDA-MB-231 cells; IP with antibody against MK2 or against JAB1, western blot for the other; IP buffer 50 mM Tris HCl, 150 mM NaCl, 1% NP40
[8] = target: JAB1, endogenous in HEK293 cells (human (endogenous in HEK293)) (UniProt Q92905); assay: co-IP; HEK293 cells transfected with Myc-tagged MK2, MK2-CA or MK2-DN; IP with an antibody against JAB1, immunoblotting
[9] = target: T1, JUN in MDA-MB-231 cells (human (endogenous in MDA-MB-231)), P05412; assay: co-IP; MDA-MB-231 cell lysates, with or without knockdown of JAB1; JUN homo-dimerization and hetero-dimerization with Fra-1 and ATF2; conditions: remark: other sources report otherwise
T1 chain: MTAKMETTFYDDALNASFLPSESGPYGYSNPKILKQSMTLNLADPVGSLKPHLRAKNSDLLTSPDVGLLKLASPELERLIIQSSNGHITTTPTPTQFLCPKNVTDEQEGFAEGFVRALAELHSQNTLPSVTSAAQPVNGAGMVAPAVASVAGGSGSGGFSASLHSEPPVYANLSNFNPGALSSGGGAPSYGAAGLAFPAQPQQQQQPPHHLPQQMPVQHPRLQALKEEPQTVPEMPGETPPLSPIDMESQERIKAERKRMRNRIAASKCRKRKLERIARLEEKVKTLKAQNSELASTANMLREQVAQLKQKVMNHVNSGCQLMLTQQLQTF

[10] = target: JUN in MDA-MB-231 cells (human (endogenous in MDA-MB-231)) (UniProt P05412); assay: as above

binding [1]: binds | binding [2]: binds
Molecule: JUN activation domain-binding protein 1 (JAB1), endogenous in MDA-MB-231 cells (from UniProt Q92905 1-334)

binding [3]: binds | binding [4]: binds | binding [5]: binds | binding [6]: binds
Molecule: JUN in MDA-MB-231 cells (from UniProt P05412 1-331)

binding [7]: binds
Molecule: MAPKAPK2 (MK2), endogenous in MDA-MB-231 cells (from UniProt P49137 1-400) (enzyme)

binding [8]: binds
Molecule: Myc-tagged wild-type MK2 (from UniProt P49137 1-400) (enzyme)

binding [9]: binds
B1: JUN in MDA-MB-231 cells, P05412 1-331 (protein)
chain: MTAKMETTFYDDALNASFLPSESGPYGYSNPKILKQSMTLNLADPVGSLKPHLRAKNSDLLTSPDVGLLKLASPELERLIIQSSNGHITTTPTPTQFLCPKNVTDEQEGFAEGFVRALAELHSQNTLPSVTSAAQPVNGAGMVAPAVASVAGGSGSGGFSASLHSEPPVYANLSNFNPGALSSGGGAPSYGAAGLAFPAQPQQQQQPPHHLPQQMPVQHPRLQALKEEPQTVPEMPGETPPLSPIDMESQERIKAERKRMRNRIAASKCRKRKLERIARLEEKVKTLKAQNSELASTANMLREQVAQLKQKVMNHVNSGCQLMLTQQLQTF

binding [10]: binds
B2: Fra-1 in MDA-MB-231 cells (protein, UniProt P15407 1-271)
chain: MFRDFGEPGPSSGNGGGYGGPAQPPAAAQAAQQKFHLVPSINTMSGSQELQWMVQPHFLGPSSYPRPLTYPQYSPPQPRPGVIRALGPPPGVRRRPCEQISPEEEERRRVRRERNKLAAAKCRNRRKELTDFLQAETDKLEDEKSGLQREIEELQKQKERLELVLEAHRPICKIPEGAKEGDTGSTSGTSSPPAPCRPVPCISLSPGPVLEPEALHTPTLMTTPSLTPFTPSLVFTYPSTPEPCASAHRKSSSSSGDPSSDPLGSPTLLAL

binding [9]: binds
B3: ATF2 in MDA-MB-231 cells, P15336 1-505 (protein)
chain: MKFKLHVNSARQYKDLWNMSDDKPFLCTAPGCGQRFTNEDHLAVHKHKHEMTLKFGPARNDSVIVADQTPTPTRFLKNCEEVGLFNELASPFENEFKKASEDDIKKMPLDLSPLATPIIRSKIEEPSVVETTHQDSPLPHPESTTSDEKEVPLAQTAQPTSAIVRPASLQVPNVLLTSSDSSVIIQQAVPSPTSSTVITQAPSSNRPIVPVPGPFPLLLHLPNGQTMPVAIPASITSSNVHVPAAVPLVRPVTMVPSVPGIPGPSSPQPVQSEAKMRLKAALTQQHPPVTNGDTVKGHGSGLVRTQSEESRPQSLQQPATSTTETPASPAHTTPQTQSTSGRRRRAANEDPDEKRRKFLERNRAAASRCRQKRKVWVQSLEKKAEDLSSLNGQLQSEVTLLRNEVAQLKQLLLAHKDCPVTAMQKKSGYHTADKDDSSEDISVPSSPHTEAIQHSSVSTSNGVSSTSKAEAVATSVLTQMADQSTEPALSQIVMAPSSQSQPSGS
